# PubChem BioAssay AID445 (National Center for Advancing Translational Sciences (NCATS), 2006)
# Some of the results follow. Shown are side measurements of this screen, not its main read-out; they come without a call. Compounds called inactive in the main read-out are mostly missing here. Words in brackets tell the shape of the fitted curve; partial curves, single points and poor fits give uncertain potencies.
# Assay: IkB Signaling
# Details: ABC-DLBCL IkBa-CBG/CBR dual luciferase ratio (green luciferase fused to IkBa over red control in OCI-Ly3 lymphoma cells), 4 h
# Outline: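 Luminescence ratio of IκBα-fused green versus native red beetle luciferase in OCI-Ly3 cells, 4 h post-doxycycline with compound; red signal alone, scaled from basal (0%) to zero light (-100%), flagged nonspecific or cytotoxic effects.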
# [1] = measured here: control luc red channel unless noted
# [2] = measured here: IkB-luc green channel
# [3] = measured here: control luc red channel
compound,measurement,setting,value
Cc1ccc(C)c(CN2CCCN(Cc3ccccc3C)S2(=O)=O)c1,AC50,[1],"10 µM [falling, partial curve]"
Cc1cc(C)cc(NC(=O)CN2C(=O)c3ccccc3Sc3ccc(C(=O)N4CCCC4)cc32)c1,AC50,[1],"12.6 µM [falling, partial curve]"
O=C(CN1C(=O)CCc2cc(Br)ccc21)Nc1ccc(OC(F)(F)F)cc1,AC50,[1],"7.94 µM [falling, full curve]"
CCOC(=O)c1ccc(Nc2c(-c3ccc(N(C)C)cc3)nc3nc[nH]n23)cc1,AC50,[2],"39.8 µM [rising, single point]"
same,AC50,[3],"0.398 µM [falling, full curve]"
COc1ccccc1NC(=O)CSc1nnc2c(n1)[nH]c1ccccc12,AC50,[1],"12.6 µM [falling, partial curve]"
COc1ccc(CCn2c(-c3ccco3)nc3ccccc3c2=O)cc1OC,AC50,[1],"7.94 µM [falling, full curve, poor fit]"
C[C@@H](Cc1ccccc1)Nc1ncnc2c1ncn2[C@@H]1O[C@@H](CO)[C@H](O)[C@@H]1O,AC50,[1],"1.58 µM [rising, partial curve, poor fit] [measured here: IkB-luc green channel]"
CCOC(=O)c1c(C)oc2ccc(N(C(=O)c3ccncc3)S(=O)(=O)c3ccc(F)cc3C)cc12,AC50,[1],"15.8 µM [falling, partial curve]"
CC(C)CCNC(=O)CCCn1c(=O)c2cccn2c2ccccc21,AC50,[1],"12.6 µM [falling, partial curve]"
Cc1cccc(CS(=O)(=O)Cc2ccc(C(=O)NCc3ccc(F)cc3)o2)c1,AC50,[1],"12.6 µM [falling, single point]"
COc1ccccc1N1CCN(S(=O)(=O)c2cc(C(=O)Nc3ccc(Oc4ccccc4)cc3)ccc2F)CC1,AC50,[1],"7.94 µM [falling, full curve]"
COc1cccc(NC(=O)c2cnc(SCC(=O)N3CCCc4ccccc43)n(C)c2=O)c1,AC50,[2],"39.8 µM [rising, single point]"
same,AC50,[3],"20 µM [falling, partial curve]"
COC(=O)c1ccccc1NC(=O)c1cc(OC)cc(OC)c1,AC50,[1],"7.94 µM [falling, partial curve]"
CCc1ccccc1-n1c(SCC(=O)Nc2ccc(C)cc2)nc2n[nH]c(C)c2c1=N,AC50,[1],"15.8 µM [falling, partial curve]"
O=C1Nc2ccccc2C12OCC(COc1ccc(Cl)cc1)O2 (stereo not given),AC50,[1],"12.6 µM [falling, partial curve]"
CCc1cccc(NC(=O)Cn2c(-c3ccc(F)cc3)cc(C(C)=O)c2C)c1,AC50,[1],"39.8 µM [falling, single point]"
O=C(c1ccc2c(c1)N(Cc1ccccc1Cl)C(=O)c1ccccc1S2)N1CCCC1,AC50,[1],"25.1 µM [falling, partial curve]"
CC(C)(C)c1csc(NC(=O)c2ccc(Cl)s2)n1,AC50,[1],"7.94 µM [falling, full curve]"
Cc1ccccc1CNC(=O)CN1CCSc2ccccc21,AC50,[1],"25.1 µM [falling, partial curve]"
COc1ccc(NC(=O)CN2CCCN(Cc3ccccc3)S2(=O)=O)cc1,AC50,[1],"25.1 µM [falling, single point]"
Cc1ccc(NC(=O)C2CCN(S(=O)(=O)c3ccc4c(c3)CCCC(=O)N4)CC2)c(Br)c1,AC50,[1],"10 µM [falling, partial curve]"
CCCCOC(=O)c1ccc(NC(=O)c2ccc3c(c2)CCCN3S(C)(=O)=O)cc1,AC50,[1],"25.1 µM [falling, single point]"
CC(C)COc1ccc(-c2nnc(-c3ccco3)o2)cc1,AC50,[1],"39.8 µM [falling, single point]"
O=C(CSc1nnc(CNC(=O)c2ccccc2)n1-c1ccc(F)cc1)Nc1ccccc1F,AC50,[1],"10 µM [falling, partial curve]"
CCCCOc1ccc(C(=O)Nc2sc3c(c2C(=O)OCC)CCCCC3)cc1,AC50,[1],"31.6 µM [falling, single point]"
Cc1nc(C)n(CC(O)COc2ccc3cc(Br)ccc3c2)n1 (stereo not given),AC50,[1],"15.8 µM [falling, partial curve]"
COc1ccc(Nc2ncc(C(=O)Nc3ccc(F)cc3F)c3ccccc23)cc1,AC50,[1],"20 µM [falling, partial curve]"
CCN(CC)C(=O)Cn1cc(SCC(=O)Nc2cc(OC)ccc2OC)c2ccccc21,AC50,[1],"15.8 µM [falling, partial curve]"
CC1(C)Cc2cccc(OCC(=O)Nc3ccccc3N3CCOCC3)c2O1,AC50,[1],"10 µM [falling, partial curve]"
O=C(Nc1cccc(F)c1)c1ccc(S(=O)(=O)N2CCCC2)cc1,AC50,[1],"10 µM [falling, partial curve]"
CCC(CC)C(=O)Nc1ccc2nc(SCC(=O)N3CCOCC3)sc2c1,AC50,[1],"0.316 µM [falling, partial curve]"
Cc1ccccc1C(=O)Nc1sc2c(c1C(=O)N1CCCCC1)CCC(C(C)(C)C)C2 (stereo not given),AC50,[1],"10 µM [falling, partial curve]"
O=C(NCc1ccc(Cl)cc1)C1CCN(S(=O)(=O)c2ccc(F)cc2)CC1,AC50,[1],"15.8 µM [falling, partial curve]"
COc1ccccc1NC(=O)CSc1nnc(Cc2cc(=O)[nH]c(=O)[nH]2)n1-c1ccccc1,AC50,[1],"20 µM [falling, partial curve]"
CCC1CCCCN1S(=O)(=O)c1ccc2c(c1)CCN2C(=O)C1CCC1 (stereo not given),AC50,[1],"20 µM [falling, single point]"
COc1ccccc1N1CCN(c2ncc3c(n2)CCN(Cc2ccc(C)s2)C3)CC1,AC50,[1],"31.6 µM [falling, single point]"
O=C(Nc1nc(-c2ccccn2)cs1)c1ccc(S(=O)(=O)N2CCCCC2)cc1,AC50,[1],"10 µM [falling, partial curve]"
CCn1c(=O)c2sccc2n2c(CCCC(=O)N3CCN(c4cc(C)ccc4C)CC3)nnc12,AC50,[1],"12.6 µM [falling, partial curve]"
Cc1ccn2c(=O)c(C(=O)NCCc3ccc(S(N)(=O)=O)cc3)c(O)nc2c1,AC50,[1],"0.1 µM [rising, partial curve, poor fit]"
Cc1[nH]c2ccc(C(=O)OCCN(C)C)cc2c1C,AC50,[1],"100 nM [falling, partial curve, poor fit] [measured here: IkB-luc green channel]"
COc1ccc(N2C(=O)CSC23C(=O)N(CC(=O)NCc2ccccc2)c2ccccc23)cc1 (stereo not given),AC50,[1],"0.251 µM [falling, full curve, poor fit]"
O=c1oc(-c2ccco2)nc2c1cnn2-c1ccccc1,AC50,[2],"3.16 µM [falling, partial curve]"
same,AC50,[3],"15.8 µM [falling, partial curve]"
COc1cccc(NC(=O)C2CC(=O)N(C)C(=Nc3cccc(F)c3)S2)c1 (stereo not given),AC50,[1],"25.1 µM [falling, partial curve]"
CS(=O)(=O)NCCc1csc2nc(-c3ccccc3)nn12,AC50,[1],"3.98 µM [rising, single point]"
COc1cccc(NC(=O)N(Cc2cn(C)c3ccccc23)C2CCCCC2)c1,AC50,[1],"7.94 µM [falling, full curve]"
Cc1ccc(C)c(N2CCN(C(=O)c3ccc(CS(=O)(=O)c4ccccc4C)o3)CC2)c1,AC50,[1],"7.94 µM [falling, partial curve]"
CCOc1ccc(NC(=O)Cn2c(=O)n(Cc3ccccc3)c(=O)c3sc4ccccc4c32)cc1,AC50,[1],"3.16 µM [rising, single point]"
C=C(C)COc1ccc(-c2n[nH]c(C)c2Oc2ccccc2OC)c(O)c1,AC50,[1],"25.1 µM [falling, single point]"
Cc1cc(C)cc(NC(=O)CN2C(=O)CSc3ccc(S(=O)(=O)N4CCCC4)cc32)c1,AC50,[1],"25.1 µM [falling, single point]"
CCOc1ccc(NC(=O)c2c(NC(=O)c3cccc(C)c3)sc3c2CCC3)cc1,AC50,[1],"12.6 µM [falling, partial curve]"
O=C(NCC1CCN(Cc2cccc(F)c2)CC1)c1cc2ccc3cccnc3c2[nH]1,AC50,[1],"15.8 µM [falling, partial curve]"
COc1ccccc1N1CCN(S(=O)(=O)CCNC(=O)COc2ccc(F)cc2)CC1,AC50,[1],"10 µM [falling, partial curve]"
CCc1ccc(NC(=O)CC2C(=O)N(c3ccc(OC)cc3)C(=O)N2Cc2ccc(OC)cc2)cc1 (stereo not given),AC50,[1],"31.6 µM [falling, single point]"
Cc1cc(Nc2ccccc2)n(-c2nc3ccccc3[nH]2)n1,AC50,[1],"15.8 µM [falling, partial curve]"
Cc1csc2nc(CSc3nc4ccccc4o3)c(Br)n12,AC50,[1],"39.8 µM [falling, single point]"
COc1ccc(CCNc2ncnc3c2c(-c2ccccc2)cn3-c2cccc(Cl)c2)cc1OC,AC50,[1],"12.6 µM [falling, partial curve]"
COC(=O)c1sccc1NC(=O)c1ccncc1,AC50,[1],"12.6 µM [rising, partial curve]"
CCOc1ccc(CNC(=O)CCn2c(=O)c3cccn3c3cccnc32)cc1,AC50,[1],"1 µM [rising, full curve]"
O=C(CSc1nc(=O)n(Cc2ccco2)c2c1CCC2)NCc1ccccc1Cl,AC50,[1],"25.1 µM [falling, single point]"
CCOC(=O)/C=C(\C)Sc1cc(=O)oc2ccccc12,AC50,[1],"7.94 µM [falling, partial curve]"
O=C(C1CCCN(S(=O)(=O)c2ccc(Br)s2)C1)N1CCCCCC1 (stereo not given),AC50,[1],"10 µM [falling, partial curve]"
COc1ccccc1CNC(=O)CCCn1nc(C)c2c(C)n(-c3ccc(C)cc3)nc2c1=O,AC50,[1],"12.6 µM [falling, partial curve]"

# Quoted at random: three entries already listed
compound,measurement,setting,value
CC(C)CCNC(=O)CCCn1c(=O)c2cccn2c2ccccc21,AC50,[1],"12.6 µM [falling, partial curve]"
Cc1[nH]c2ccc(C(=O)OCCN(C)C)cc2c1C,AC50,[1],"100 nM [falling, partial curve, poor fit] [measured here: IkB-luc green channel]"
O=C(Nc1nc(-c2ccccn2)cs1)c1ccc(S(=O)(=O)N2CCCCC2)cc1,AC50,[1],"10 µM [falling, partial curve]"
